PubChem BioAssay AID1224830 – NIAID – 2016

Screen: 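Genes whose knock-down alters the TNF-alpha reporter response to LPS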 (primary screen)
System: human THP-1 monocytic leukaemia cells, TNF dual-luciferase reporter clone, PMA-differentiated to macrophage-like cells
Knock-down reagent: siRNA pool against human genes, 50 nM
Time to read-out: LPS for 4 h, given about 3 days after siRNA transfection
Challenge: bacterial LPS (TLR4 ligand), 10 ng/ml
Measurement: 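Ratio of firefly to renilla light, scaled to the plate median and expressed as a robust z-score per replicate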
Scale: TNF reporter robust z-score: higher = stronger TNF reporter response to LPS
Active means: 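a well is active when its z-score exceeds 2.8 or falls below -1.5; control wells carry no call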
In all, the deposit lists about 18,000 reagents; below is a random part of them. About 2,900 of all reagents (16%) count as active. 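Calls are made per well; low scores hint the gene aids the LPS response, high scores that it dampens it.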 Unmarked entries are inactive. Repeated entries: four replicate wells of each siRNA pool.

{"target gene": "RPLP2 (ribosomal protein lateral stalk subunit P2)", "TNF reporter robust z-score": "-1.58 (active)"}
{"target gene": "RPLP2 (ribosomal protein lateral stalk subunit P2)", "TNF reporter robust z-score": "-1.66 (active)"}
{"target gene": "RPLP2 (ribosomal protein lateral stalk subunit P2)", "TNF reporter robust z-score": "-1.68 (active)"}
{"target gene": "RPLP2 (ribosomal protein lateral stalk subunit P2)", "TNF reporter robust z-score": -1.16}
{"target gene": "MEIS2 (Meis homeobox 2)", "TNF reporter robust z-score": -0.22}
{"target gene": "MEIS2 (Meis homeobox 2)", "TNF reporter robust z-score": 0.6}
{"target gene": "MEIS2 (Meis homeobox 2)", "TNF reporter robust z-score": -0.27}
{"target gene": "MEIS2 (Meis homeobox 2)", "TNF reporter robust z-score": 0.25}
{"target gene": "SGCG (sarcoglycan gamma)", "TNF reporter robust z-score": -0.53}
{"target gene": "SGCG (sarcoglycan gamma)", "TNF reporter robust z-score": 0.29}
{"target gene": "SGCG (sarcoglycan gamma)", "TNF reporter robust z-score": -0.88}
{"target gene": "SGCG (sarcoglycan gamma)", "TNF reporter robust z-score": -0.82}
{"target gene": "ZNF548 (zinc finger protein 548)", "TNF reporter robust z-score": -1.03}
{"target gene": "ZNF548 (zinc finger protein 548)", "TNF reporter robust z-score": -0.27}
{"target gene": "ZNF548 (zinc finger protein 548)", "TNF reporter robust z-score": -0.55}
{"target gene": "ZNF548 (zinc finger protein 548)", "TNF reporter robust z-score": -0.68}
{"target gene": "SMIM12 (small integral membrane protein 12)", "TNF reporter robust z-score": 2.56}
{"target gene": "SMIM12 (small integral membrane protein 12)", "TNF reporter robust z-score": 1.89}
{"target gene": "SMIM12 (small integral membrane protein 12)", "TNF reporter robust z-score": "3.59 (active)"}
{"target gene": "SMIM12 (small integral membrane protein 12)", "TNF reporter robust z-score": 1.75}
